Publication PMC8373905
These are yes or no findings as the source states them, for the method shown. In cells and extracts the contact can be indirect. These calls come from enrichment with a bait or labelling near it, and not all partners need be listed.

Amino acid sequences for entries named in this document (tags omitted).
UniProt P11387: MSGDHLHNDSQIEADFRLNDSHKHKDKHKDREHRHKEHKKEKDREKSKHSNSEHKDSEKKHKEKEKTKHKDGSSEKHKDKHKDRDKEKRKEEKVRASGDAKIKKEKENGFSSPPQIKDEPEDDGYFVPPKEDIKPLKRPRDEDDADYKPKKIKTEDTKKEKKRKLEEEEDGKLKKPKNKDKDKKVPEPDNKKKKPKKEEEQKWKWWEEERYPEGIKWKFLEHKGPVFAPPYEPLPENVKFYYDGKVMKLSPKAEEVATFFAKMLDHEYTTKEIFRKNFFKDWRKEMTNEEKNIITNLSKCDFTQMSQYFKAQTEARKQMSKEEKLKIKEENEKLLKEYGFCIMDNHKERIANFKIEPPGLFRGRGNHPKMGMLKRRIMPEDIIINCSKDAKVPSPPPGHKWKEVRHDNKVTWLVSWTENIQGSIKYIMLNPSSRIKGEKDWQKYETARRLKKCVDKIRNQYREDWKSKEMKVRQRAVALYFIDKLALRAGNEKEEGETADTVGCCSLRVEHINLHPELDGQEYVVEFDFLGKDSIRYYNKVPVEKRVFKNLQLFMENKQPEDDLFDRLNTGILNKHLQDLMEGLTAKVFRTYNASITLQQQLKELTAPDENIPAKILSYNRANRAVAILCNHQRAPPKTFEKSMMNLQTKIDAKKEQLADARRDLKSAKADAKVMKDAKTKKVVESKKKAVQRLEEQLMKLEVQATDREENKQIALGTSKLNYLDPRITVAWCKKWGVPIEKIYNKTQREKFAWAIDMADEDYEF
UniProt P09874: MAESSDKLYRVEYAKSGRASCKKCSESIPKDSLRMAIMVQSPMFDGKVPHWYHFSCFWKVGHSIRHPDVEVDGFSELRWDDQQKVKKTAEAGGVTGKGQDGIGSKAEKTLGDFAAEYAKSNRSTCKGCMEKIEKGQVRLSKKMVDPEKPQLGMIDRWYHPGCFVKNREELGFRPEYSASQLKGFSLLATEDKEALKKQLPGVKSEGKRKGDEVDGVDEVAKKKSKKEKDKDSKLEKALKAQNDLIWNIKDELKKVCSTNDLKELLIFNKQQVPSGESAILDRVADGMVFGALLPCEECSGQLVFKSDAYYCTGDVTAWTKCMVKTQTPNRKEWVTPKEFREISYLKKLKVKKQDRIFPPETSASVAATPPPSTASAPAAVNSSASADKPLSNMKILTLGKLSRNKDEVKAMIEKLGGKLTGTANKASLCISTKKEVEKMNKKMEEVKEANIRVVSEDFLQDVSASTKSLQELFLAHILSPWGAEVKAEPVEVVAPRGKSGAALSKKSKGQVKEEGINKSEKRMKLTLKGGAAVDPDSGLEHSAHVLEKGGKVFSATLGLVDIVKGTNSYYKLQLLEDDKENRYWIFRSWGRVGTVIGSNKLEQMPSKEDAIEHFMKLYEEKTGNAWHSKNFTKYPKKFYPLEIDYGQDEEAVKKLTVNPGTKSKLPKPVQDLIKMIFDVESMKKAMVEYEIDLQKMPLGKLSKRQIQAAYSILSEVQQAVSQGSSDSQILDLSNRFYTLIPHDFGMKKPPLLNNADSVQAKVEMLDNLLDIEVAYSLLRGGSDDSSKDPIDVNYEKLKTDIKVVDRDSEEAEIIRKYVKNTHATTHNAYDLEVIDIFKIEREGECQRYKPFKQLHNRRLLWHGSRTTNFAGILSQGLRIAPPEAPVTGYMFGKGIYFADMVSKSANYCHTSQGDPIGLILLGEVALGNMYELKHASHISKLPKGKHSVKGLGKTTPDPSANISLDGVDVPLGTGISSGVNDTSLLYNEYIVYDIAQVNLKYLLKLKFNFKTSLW
UniProt Q93009: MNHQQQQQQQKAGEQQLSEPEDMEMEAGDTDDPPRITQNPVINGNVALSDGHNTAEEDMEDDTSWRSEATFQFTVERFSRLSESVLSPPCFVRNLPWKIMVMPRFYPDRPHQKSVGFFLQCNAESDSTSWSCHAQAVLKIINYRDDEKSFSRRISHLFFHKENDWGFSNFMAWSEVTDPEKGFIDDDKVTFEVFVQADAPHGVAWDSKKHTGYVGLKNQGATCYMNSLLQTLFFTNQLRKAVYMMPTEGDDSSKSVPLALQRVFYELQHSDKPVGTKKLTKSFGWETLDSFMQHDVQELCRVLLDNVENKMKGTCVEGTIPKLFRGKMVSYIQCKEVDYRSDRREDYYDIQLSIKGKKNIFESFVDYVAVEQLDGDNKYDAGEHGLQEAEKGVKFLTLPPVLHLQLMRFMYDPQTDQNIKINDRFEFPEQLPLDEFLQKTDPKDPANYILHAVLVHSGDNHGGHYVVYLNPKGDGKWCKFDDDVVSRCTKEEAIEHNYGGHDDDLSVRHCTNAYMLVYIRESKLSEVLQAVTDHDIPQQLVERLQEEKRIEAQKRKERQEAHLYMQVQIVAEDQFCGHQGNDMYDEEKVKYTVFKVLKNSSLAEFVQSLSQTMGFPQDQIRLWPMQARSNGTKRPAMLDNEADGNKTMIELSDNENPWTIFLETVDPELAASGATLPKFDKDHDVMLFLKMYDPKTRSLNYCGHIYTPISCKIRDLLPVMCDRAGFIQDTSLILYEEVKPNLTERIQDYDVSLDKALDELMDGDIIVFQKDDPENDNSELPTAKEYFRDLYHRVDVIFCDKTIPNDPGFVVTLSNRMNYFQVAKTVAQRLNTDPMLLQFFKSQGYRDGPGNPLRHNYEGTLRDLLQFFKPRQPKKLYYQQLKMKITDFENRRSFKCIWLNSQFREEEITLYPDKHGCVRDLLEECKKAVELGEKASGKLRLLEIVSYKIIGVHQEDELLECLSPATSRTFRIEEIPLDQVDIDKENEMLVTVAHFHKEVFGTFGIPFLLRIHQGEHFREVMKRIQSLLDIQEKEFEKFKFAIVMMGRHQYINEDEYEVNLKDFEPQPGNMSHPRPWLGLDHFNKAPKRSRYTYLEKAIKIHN

Target: 6×His-tagged TOP1 (topoisomerase I) (human) (UniProt P11387)
Experiment: affinity purification with mass spectrometry; His-tag pulldown with Ni-NTA agarose from HCT116 cells transfected with His-TOP1 or empty vector (pTrex), without CPT, then HPLC-MS/MS

Row | binding | Substance
1 | binds | PARP1, endogenous (from UniProt P09874 1-1014) (enzyme)
2 | binds | USP7 (ubiquitin-specific protease), endogenous (from UniProt Q93009 1-1102) (enzyme)
